Results are given in words; binding and its absence hold for the method and conditions named. Binding seen in cells or lysates may run through a third protein. Some results given as binding are weak or reduced against the parent protein; the word gives no strength.
Molecular target: T1, N-acetyltransferase 10 (NAT10) (human (endogenous in HaCaT)) (UniProt Q9H0A0)
T1 sequence: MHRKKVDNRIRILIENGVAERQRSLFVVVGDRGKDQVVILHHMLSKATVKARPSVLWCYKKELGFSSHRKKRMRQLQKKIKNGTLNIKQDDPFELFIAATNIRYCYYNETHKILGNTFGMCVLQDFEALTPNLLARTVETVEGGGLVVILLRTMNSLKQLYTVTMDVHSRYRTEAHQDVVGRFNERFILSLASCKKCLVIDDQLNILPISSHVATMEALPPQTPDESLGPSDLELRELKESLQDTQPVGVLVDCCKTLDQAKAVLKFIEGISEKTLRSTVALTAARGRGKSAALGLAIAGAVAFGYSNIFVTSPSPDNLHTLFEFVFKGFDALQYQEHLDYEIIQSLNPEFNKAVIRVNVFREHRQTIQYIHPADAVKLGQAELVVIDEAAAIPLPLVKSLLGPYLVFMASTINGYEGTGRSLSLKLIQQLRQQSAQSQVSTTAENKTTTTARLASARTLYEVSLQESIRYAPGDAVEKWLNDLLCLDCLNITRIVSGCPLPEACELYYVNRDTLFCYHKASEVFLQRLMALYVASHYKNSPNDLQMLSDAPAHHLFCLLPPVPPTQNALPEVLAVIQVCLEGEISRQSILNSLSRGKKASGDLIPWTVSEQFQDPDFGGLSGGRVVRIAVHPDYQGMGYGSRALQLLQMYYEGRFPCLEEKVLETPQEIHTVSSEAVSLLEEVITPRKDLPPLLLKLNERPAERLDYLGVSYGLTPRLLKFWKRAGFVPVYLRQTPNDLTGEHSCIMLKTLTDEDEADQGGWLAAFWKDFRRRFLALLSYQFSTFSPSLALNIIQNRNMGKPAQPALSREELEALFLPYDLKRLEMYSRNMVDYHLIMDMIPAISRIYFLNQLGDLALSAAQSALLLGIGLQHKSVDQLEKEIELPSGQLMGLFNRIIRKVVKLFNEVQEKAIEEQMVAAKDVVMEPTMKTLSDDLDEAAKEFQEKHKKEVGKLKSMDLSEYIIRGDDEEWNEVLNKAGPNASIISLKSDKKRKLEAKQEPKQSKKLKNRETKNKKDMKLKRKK
Assay: co-IP; HaCaT lysates, anti-NAT10 antibody or species-matched control IgG on magnetic beads, immunoblot for NBR1, p62 and NAT10; cells exposed to UVB and treated with 250 uM or 1000 uM NGR1

binding: binds
Substance: p62 (Sequestosome 1) (from UniProt Q13501 1-440)
